Assay results from paper PMC5984758.

Molecular target: T1, YFP^N-NSN1 (Arabidopsis) (UniProt Q9M8Z5)
T1 sequence: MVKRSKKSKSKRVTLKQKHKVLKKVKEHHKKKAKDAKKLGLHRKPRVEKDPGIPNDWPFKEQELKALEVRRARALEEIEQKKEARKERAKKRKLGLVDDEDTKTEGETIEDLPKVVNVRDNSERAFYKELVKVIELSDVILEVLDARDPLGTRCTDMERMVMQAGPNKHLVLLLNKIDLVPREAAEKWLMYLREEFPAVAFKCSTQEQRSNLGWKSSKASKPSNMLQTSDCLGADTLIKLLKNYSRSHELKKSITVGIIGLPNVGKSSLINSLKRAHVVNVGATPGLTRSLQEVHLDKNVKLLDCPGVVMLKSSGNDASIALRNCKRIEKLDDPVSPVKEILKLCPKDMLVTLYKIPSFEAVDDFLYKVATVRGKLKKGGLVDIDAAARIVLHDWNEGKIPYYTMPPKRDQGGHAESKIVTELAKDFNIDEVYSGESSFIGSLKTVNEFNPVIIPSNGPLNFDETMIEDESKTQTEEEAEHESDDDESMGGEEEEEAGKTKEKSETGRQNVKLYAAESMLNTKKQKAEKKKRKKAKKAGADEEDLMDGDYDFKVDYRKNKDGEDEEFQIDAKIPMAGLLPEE
Test: split reporter; BiFC in tobacco leaf epidermal cells, Agrobacterium-infiltration, confocal microscopy after 48 h; signal in nuclei (DAPI)

YFP^C-NAP1;1 (Arabidopsis)
binding: binds

These are yes or no findings as the source states them, for the method shown. Binding seen in cells or lysates may run through a third protein. Binding can be weak; no strength is given. Tags and fused reporters may be left off the sequences shown.
